PubChem BioAssay AID504793 | Drosophila RNAi Screening Center, 2011
In all, the deposit lists about 23,000 reagents; shown is an unselected part of those with a known target gene and a result. In the full data, 62 (0.27%) were called active. 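Calls come from follow-up tests whose scores are not deposited, so confirmed genes may have low counts here; counts are not normalised per plate.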 The raw values are shown without normalisation. The numbers tell different reagents against one gene apart. Names joined by + are all predicted targets of the reagent. No sequences are given here.

Screen: 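Whole-genome screen for parts of the DNA damage checkpoint at G2/M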 (primary screen)
Cells: Drosophila S2R+ cells
Knock-down reagent: long dsRNA against Drosophila genes, about 0.25 µg dsRNA per well
Timing: 4 days of dsRNA, then 4 hours of drug before read-out
Conditions: doxorubicin 0.5 µM for 4 hours to cause double-strand breaks, in cells also given a low, harmless dose of dsRNA against nbs to sensitise the assay
Read-out: 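Mitotic index as the number of phospho-histone H3-positive cells in each well following doxorubicin, given as raw counts without normalisation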
Direction: mitotic cells: higher = more cells in mitosis, weaker G2 arrest
Hit rule: 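Genes are called active only when high mitotic counts were reproduced with independent dsRNAs and mitosis was checked for delay without damage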
Meaning of the calls: active = confirmed in follow-up tests; inactive = not confirmed

| Target gene | reagent no. | mitotic cells, replicate 1 | mitotic cells, replicate 2 | activity call |
| --- | --- | --- | --- | --- |
| Stt3B | 1 | 14 | – | inactive |
| l(2)gd1 | 1 | 3 | – | inactive |
| l(2)gd1 | 2 | 11 | – | inactive |
| CG31788 | 1 | 7 | – | inactive |
| CG6356 | 1 | 8 | – | inactive |
| Cpr65Av | 1 | 5 | – | inactive |
| Cpr65Av | 2 | 3 | – | inactive |
| Ccp84Ab | 1 | 3 | – | inactive |
| Ccp84Ab | 2 | 8 | – | inactive |
| ed | 1 | 4 | – | inactive |
| ed | 2 | 4 | – | inactive |
| ed | 3 | 4 | – | inactive |
| ed | 4 | 2 | – | inactive |
| Nemp | 1 | 6 | – | inactive |
| Nemp | 2 | 6 | – | inactive |
| Osi13 | 1 | 8 | – | inactive |
| CG5262 | 1 | 6 | – | inactive |
| CG13218 | 1 | 8 | – | inactive |
| CG13218 | 2 | 7 | – | inactive |
| CG2200 | 1 | 7 | – | inactive |
| kmr | 1 | 2 | – | inactive |
| kmr | 2 | 6 | – | inactive |
| kmr | 3 | 7 | – | inactive |
| kmr | 4 | 3 | – | inactive |
| kmr | 5 | 6 | – | inactive |
| fd19B | 1 | 6 | – | inactive |
| fd19B | 2 | 4 | – | inactive |
| CanA1 | 1 | 7 | – | inactive |
| CanA1 | 2 | 5 | – | inactive |
| sra | 1 | 8 | – | inactive |
| POLDIP2 | 1 | 3 | – | inactive |
| His3:CG33818 + His3:CG33857 + His3:CG33806 + 21 more | 1 | 7 | – | inactive |
| CG13185 | 1 | 6 | – | inactive |
| CG5445 | 1 | 3 | – | inactive |
| CG17754 | 1 | 8 | – | inactive |
| CG43328 | 1 | 6 | – | inactive |
| ubl | 1 | 4 | – | inactive |
| ABCB7 | 1 | 5 | – | inactive |
| phol | 1 | 6 | – | inactive |
| phol | 2 | 11 | – | inactive |
| Ir48a | 1 | 3 | – | inactive |
| hui | 1 | 2 | – | inactive |
| hui | 2 | 9 | – | inactive |
| TwdlZ | 1 | 36 | – | inactive |
| CG2611 | 1 | 4 | – | inactive |
| CG2611 | 2 | 8 | – | inactive |
| Ric | 1 | 5 | – | inactive |
| Ric | 2 | 7 | – | inactive |
| Uxs | 1 | 4 | – | inactive |
| Uxs | 2 | 13 | – | inactive |
| 4E-T | 1 | 10 | – | inactive |
| 4E-T | 2 | 11 | – | inactive |
| CG9344 | 1 | 3 | – | inactive |
| Dpy-30L1 | 1 | 3 | – | inactive |
| Dpy-30L1 | 2 | 7 | – | inactive |
| Vps13 | 1 | 4 | – | inactive |
| Vps13 | 2 | 3 | – | inactive |
| Grip91 | 1 | 108 | – | inactive |
| VhaAC39-1 | 1 | 8 | – | inactive |
| VhaAC39-1 | 2 | 6 | – | inactive |
| CG13575 | 1 | 8 | – | inactive |
| CG13575 | 2 | 6 | – | inactive |
| CG5768 | 1 | 9 | – | inactive |
| CG11373 | 1 | 3 | – | inactive |
| RpL6 | 1 | 17 | – | inactive |
| RpL6 | 2 | 21 | – | inactive |
| RpL6 | 3 | 6 | – | inactive |
| Rpt1 | 1 | 43 | – | inactive |
| Fpgs1 | 1 | 12 | – | inactive |
| Fpgs1 | 2 | 11 | – | inactive |
| GluProRS | 1 | 5 | – | inactive |
| CG17841 | 1 | 6 | – | inactive |
| CG17841 | 2 | 5 | – | inactive |
| enok | 1 | 6 | – | inactive |
| CG11349 | 1 | 4 | – | inactive |
| CG11349 | 2 | 9 | – | inactive |
| CG30278 | 1 | 13 | – | inactive |
| CG14855 | 1 | 3 | – | inactive |
| CG14855 | 2 | 12 | – | inactive |
| pgc | 1 | 6 | – | inactive |
| CG3500 | 1 | 4 | – | inactive |
| CG3500 | 2 | 5 | – | inactive |
| CG8774 | 1 | 5 | – | inactive |
| CG33099 | 1 | 4 | – | inactive |
| CG33099 | 2 | 6 | – | inactive |
| CG12446 | 1 | 6 | – | inactive |
| CG32564 | 1 | 7 | – | inactive |
| CG32564 | 2 | 6 | – | inactive |
| ps | 1 | 7 | – | inactive |
| ps | 2 | 12 | – | inactive |
| ps | 3 | 9 | – | inactive |
| ps | 4 | 10 | – | inactive |
| ps | 5 | 14 | – | inactive |
| CG32591 | 1 | 27 | – | inactive |
| CG33223 + CG32713 | 1 | 4 | – | inactive |
| Cpsf160 | 1 | 6 | – | inactive |
| Stam | 1 | 2 | – | inactive |
| Stam | 2 | 5 | – | inactive |
| JMJD5 | 1 | 6 | – | inactive |
| JMJD5 | 2 | 7 | – | inactive |
| CG33109 | 1 | 4 | – | inactive |
| Rsod | 1 | 13 | – | inactive |
| CG8314 | 1 | 5 | – | inactive |
| Bdbt | 1 | 12 | – | inactive |
| CG34051 | 1 | 8 | – | inactive |
| P5CS | 1 | 5 | – | inactive |
| P5CS | 2 | 4 | – | inactive |
| CG12782 | 1 | 8 | – | inactive |
| Gdap2 | 1 | 5 | – | inactive |
| Gdap2 | 2 | 7 | – | inactive |
| resilin | 1 | 8 | – | inactive |
| resilin | 2 | 4 | – | inactive |
| Cpsf5 | 1 | 5 | – | inactive |
| Cpsf5 | 2 | 16 | – | inactive |
| CG7296 | 1 | 11 | 11 | inactive |
| CG7296 | 2 | 11 | – | inactive |
| CG7296 | 3 | 6 | – | inactive |
| CG31688 | 1 | 5 | – | inactive |
| CG31688 | 2 | 8 | – | inactive |
| CG14182 | 1 | 2 | – | inactive |
| shd | 1 | 3 | – | inactive |
| Hecw | 1 | 5 | – | inactive |
| Hecw | 2 | 8 | – | inactive |
| Hecw | 3 | 5 | – | inactive |
| CG31007 | 1 | 42 | – | inactive |
| CG31007 | 2 | 3 | – | inactive |
| CG7110 | 1 | 9 | – | inactive |
| CG7110 | 2 | 2 | – | inactive |
| na | 1 | 11 | – | inactive |
| na | 2 | 3 | – | inactive |
| Mos | 1 | 6 | – | inactive |
| CG44251 | 1 | 6 | – | inactive |
| CG44251 | 2 | 1 | – | inactive |
| GluRIB + CG42509 (retired record) | 1 | 9 | – | inactive |
| GluRIB + CG42509 (retired record) | 2 | 1 | – | inactive |
| GluRIB + CG42509 (retired record) | 3 | – | – | inactive |
| RpL37-2 | 1 | 2 | – | inactive |
| SP1029 | 1 | 18 | – | inactive |
| SP1029 | 2 | 5 | – | inactive |
| CG14237 | 1 | 16 | – | inactive |

9 entries from above, reduced to “mitotic cells, replicate 1”.
Stt3B: 14
l(2)gd1 #1: 3
l(2)gd1 #2: 11
CG31788: 7
CG6356: 8
Cpr65Av #1: 5
Cpr65Av #2: 3
Ccp84Ab #1: 3
Ccp84Ab #2: 8
